Data: the supplement of paper PMC4604168 (melanoma cell lines)
The list shows a part of the results. Many values rest on one well or one pass, so single values are uncertain.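 Cells were imaged in 1,536-well plates, and nuclei stained with an antibody against cleaved PARP were counted against all DNA-stained nuclei to give the apoptosis fraction. Screening doses were chosen to leave most cells alive, and resting and induced cleaved-PARP levels differ strongly between cell lines.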

Assays:
Experiment in all cases: cleaved PARP positive nuclei fraction relative to DMSO control; melanoma cells; higher = more apoptosis
Conditions in all cases: library dose: low library concentration; 72 h
[1] = test system: 501Mel
[2] = test system: A101D
[3] = test system: A2058
[4] = test system: C32
[5] = test system: CBRC008 (line from a melanoma biopsy)
[6] = test system: CBRC014 (line from a melanoma biopsy)
[7] = test system: CBRC016 (line from a melanoma biopsy)
[8] = test system: CBRC017 (line from a melanoma biopsy)
[9] = test system: COLO792
[10] = test system: COLO800
[11] = test system: COLO829
[12] = test system: G361
[13] = test system: IPC-298
[14] = test system: IST-MEL1
[15] = test system: LB2518-MEL
[16] = test system: LOXIMVI

SMILES | cleaved PARP positive nuclei fraction [1] [%] | cleaved PARP positive nuclei fraction [2] [%] | cleaved PARP positive nuclei fraction [3] [%] | cleaved PARP positive nuclei fraction [4] [%] | cleaved PARP positive nuclei fraction [5] [%] | cleaved PARP positive nuclei fraction [6] [%] | cleaved PARP positive nuclei fraction [7] [%] | cleaved PARP positive nuclei fraction [8] [%] | cleaved PARP positive nuclei fraction [9] [%] | cleaved PARP positive nuclei fraction [10] [%] | cleaved PARP positive nuclei fraction [11] [%] | cleaved PARP positive nuclei fraction [12] [%] | cleaved PARP positive nuclei fraction [13] [%] | cleaved PARP positive nuclei fraction [14] [%] | cleaved PARP positive nuclei fraction [15] [%] | cleaved PARP positive nuclei fraction [16] [%]
CS(=O)(=O)CCNCc1ccc(-c2ccc3ncnc(Nc4ccc(OCc5cccc(F)c5)c(Cl)c4)c3c2)o1 [lapatinib] + c1cc(-c2cnn3cc(-c4ccc(OCCN5CCCCC5)cc4)cnc23)ccn1 [Dorsomorphin] (first compound 0.8 µM, partner dose 0.4 µM) | 81.9 | 35.9 | 277 | 44.2 | 90.5 | 92.9 | 79.8 | 146 | 71.3 | 220 | 52.1 | 122 | 141 | 77.3 | 71.2 | 330
Nc1ccn([C@@H]2O[C@H](CO)[C@@H](O)C2(F)F)c(=O)n1 [gemcitabine] + Cc1cc([N+](=O)[O-])ccc1NS(=O)(=O)c1cc(Cl)ccc1Cl [FH535] (first compound 0.0004 µM, partner dose 1 µM) | 61.4 | 32.8 | 140 | 296 | 355 | 83.2 | 557 | 324 | 83.7 | 96.2 | 71.8 | 77.2 | 149 | 58.4 | 63.1 | 141
CN1CCN(c2ccc3nc(-c4c(N)c5c(F)cccc5[nH]c4=O)[nH]c3c2)CC1 [Dovitinib] + COc1cc2ncnc(Nc3ccc(Oc4ccccc4)cc3)c2cc1OC [SrcI1] (first compound 0.1 µM, partner dose 2 µM) | 131 | 45.5 | 45.4 | 41.4 | 147 | 95.2 | 20.7 | 103 | 59.7 | 288 | 48.9 | 122 | 98.8 | 107 | 75.2 | 157
Cc1cc(Nc2cc(N3CCN(C)CC3)nc(/C=C/c3ccccc3)n2)n[nH]1 + N#Cc1c(O)c2c(-c3ccc(-c4ccccc4O)cc3)csc2[nH]c1=O [A769662] (first compound 0.04 µM, partner dose 2 µM) | 74.8 | 18.4 | 50 | 47.9 | 20.8 | 85.2 | 73.4 | 161 | 124 | 154 | 146 | 136 | 114 | 74.2 | 68.5 | 350
CS(=O)(=O)CCNCc1ccc(-c2ccc3ncnc(Nc4ccc(OCc5cccc(F)c5)c(Cl)c4)c3c2)o1 [lapatinib] + COc1ccc(COc2ccc(Cc3cnc(N)nc3N)cc2OC)cc1 [GW2580] (first compound 0.8 µM, partner dose 1 µM) | 88 | 70.5 | 27.3 | 240 | 298 | 110 | 79.1 | 262 | 112 | 136 | 109 | 102 | 51 | 177 | 68.4 | 191
CS(=O)(=O)CCNCc1ccc(-c2ccc3ncnc(Nc4ccc(OCc5cccc(F)c5)c(Cl)c4)c3c2)o1 [lapatinib] + Cc1cc([N+](=O)[O-])ccc1NS(=O)(=O)c1cc(Cl)ccc1Cl [FH535] (first compound 0.8 µM, partner dose 1 µM) | 108 | 10.9 | 160 | 143 | 431 | 179 | 239 | 354 | 108 | 100 | 54.8 | 93 | 51.5 | 26.3 | 70.9 | 78.7
CCCS(=O)(=O)Nc1ccc(F)c(C(=O)c2c[nH]c3ncc(Cl)cc23)c1F + Oc1cc(-c2nc(-c3ccccc3)[nH]c2-c2ccncc2)ccc1Cl [L779450] (first compound 0.08 µM, partner dose 0.2 µM) | 74.9 | 40.4 | 45.8 | 71.9 | 32 | 97.6 | 39 | 87 | 97.6 | 117 | 100 | 226 | 55.7 | 119 | 70.1 | 146
